The source of these data is patent publication US20050261283A1, “Methods and compositions for the treatment of graft failure” (priority 2002, published 2005).

For this test, the system named is human aortic vascular smooth muscle cell (HASOM cells). As to the kind of experiment: PDGF-BB induced migration of human aortic vascular smooth muscle cells, Boyden chamber. The class given is cell-based. The note with it: in vitro VSMC migration, read-out: IC50 for blocking VSMC migration. Here is the method:
The cells were then cultured in the presence of these agents for forty-eight hours prior to the migration assay. […] Each well contained an insert with a polycarbonate filter having 8 μm pores. In preparation for the migration assays, the membranes were coated with 0.1% gelatin for 8 hours, aspirated, and allowed to dry for 2 hours.
The M-199 media containing 0.5% BSA and 20 ng/ml human PDGF-B (hPDGF-BB) was placed in the bottom Boyden chamber. Cells were incubated at 5% CO2 at 37° C. for twelve hours and the cells lying on the upper surface of the membrane were scraped off. The insert membranes were removed and the cells on the lower surface of each membrane were stained with hematoxylin. Cell migration was then quantified by counting the cells in five random high-power fields on the lower surface of the membrane. All assays were run in triplicate.

Where a name gives a salt, the structure may show the parent alone.

Take `Cc1ccc(NC(=O)c2ccc(CN3CCN(C)CC3)cc2)cc1Nc1nccc(-c2cccnc2)n1` [Gleevec, imatinib mesylate]: the IC50 lay within 0.25 to 0.5 µg/mL.
